Measured values from article PMC10094722.
Residue numbers refer to the chain shown, from its start. These are yes or no findings as the source states them, for the method shown. For some of these results: In cells and extracts the contact can be indirect. Some entries that bind do so weakly or less than the wild type.

The chains behind the UniProt entries cited, without tags or fusion partners.
UniProt P22636: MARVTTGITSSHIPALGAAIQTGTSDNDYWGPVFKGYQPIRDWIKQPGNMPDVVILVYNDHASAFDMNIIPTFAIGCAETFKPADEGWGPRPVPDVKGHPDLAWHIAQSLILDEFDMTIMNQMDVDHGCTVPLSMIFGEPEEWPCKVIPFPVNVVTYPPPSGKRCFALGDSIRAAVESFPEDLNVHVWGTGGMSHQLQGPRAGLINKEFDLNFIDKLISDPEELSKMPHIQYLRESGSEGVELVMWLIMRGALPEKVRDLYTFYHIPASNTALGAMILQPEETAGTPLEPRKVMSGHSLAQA

Experiments:
[1] = biological target: T1, LigA, alpha subunit of protocatechuate 4,5-dioxygenase (LigAB), wild-type (Sphingobium sp. strain SYK-6) (UniProt P22635); assay: native gel or EMSA; 10% native polyacrylamide gel of purified LigAB (wild-type, F103A, F103S), Coomassie stained, 6.25 to 50 ug protein per lane; masses calculated from the bands; both purified
T1 sequence: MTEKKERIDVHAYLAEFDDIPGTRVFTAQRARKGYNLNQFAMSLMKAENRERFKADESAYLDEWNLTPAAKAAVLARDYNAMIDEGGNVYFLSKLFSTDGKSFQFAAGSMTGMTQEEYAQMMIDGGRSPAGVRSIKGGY

[2] = biological target: T2, LigA F103S (Sphingobium sp. strain SYK-6) (UniProt P22635); assay: as above
T2 sequence: T1 sequence with F103S

[3] = biological target: T3, LigA F103A (Sphingobium sp. strain SYK-6) (UniProt P22635); assay: as above
T3 sequence: T1 sequence with F103A

[4] = biological target: T1, LigA, alpha subunit of protocatechuate 4,5-dioxygenase (LigAB), wild-type (Sphingobium sp. strain SYK-6); assay: pull-down; co-purification of untagged LigB with His6-LigA on HisPur Ni-NTA resin from lysate of co-expressing E. coli, aerobic; 50 mM HEPES, 300 mM NaCl, pH 8.0, imidazole step gradient (62.5, 125, 250 mM); fractions on SDS-PAGE, Coomassie, quantified with ImageQuant
[5] = biological target: T4, LigA F103L (Sphingobium sp. strain SYK-6) (UniProt P22635); assay: as above
T4 sequence: T1 sequence with F103L

[6] = biological target: T5, LigA F103T (Sphingobium sp. strain SYK-6) (UniProt P22635); assay: as above
T5 sequence: T1 sequence with F103T

[7] = biological target: T2, LigA F103S (Sphingobium sp. strain SYK-6); assay: as above
[8] = biological target: T6, LigA F103V (Sphingobium sp. strain SYK-6) (UniProt P22635); assay: as above
T6 sequence: T1 sequence with F103V

[9] = biological target: T7, LigA F103H (Sphingobium sp. strain SYK-6) (UniProt P22635); assay: as above
T7 sequence: T1 sequence with F103H

[10] = biological target: T3, LigA F103A (Sphingobium sp. strain SYK-6); assay: as above

Measured: binding

LigB, beta subunit of protocatechuate 4,5-dioxygenase (LigAB) (from UniProt P22636 1-302)
binds: all assays above
